According to PubChem BioAssay AID651768 (National Center for Advancing Translational Sciences (NCATS), 2012):
Among all 360,000 compounds or so, about 1,700 (0.47%) were called active. The shares of active, inactive and inconclusive entries below differ from those in the screen. The call rests on the fitted dose curve; in most records, active means well fitted inhibition curve with a large enough effect; inconclusive means small, poorly fitted or top-dose-only effect; inactive means no such curve, though single readings can be large or run the other way. Potencies of inconclusive entries are doubtful fits and often do not repeat.

Protein sequences, listed by entry. Tags and fused reporters are not part of them.
UniProt Q14191, whole entry, looked up: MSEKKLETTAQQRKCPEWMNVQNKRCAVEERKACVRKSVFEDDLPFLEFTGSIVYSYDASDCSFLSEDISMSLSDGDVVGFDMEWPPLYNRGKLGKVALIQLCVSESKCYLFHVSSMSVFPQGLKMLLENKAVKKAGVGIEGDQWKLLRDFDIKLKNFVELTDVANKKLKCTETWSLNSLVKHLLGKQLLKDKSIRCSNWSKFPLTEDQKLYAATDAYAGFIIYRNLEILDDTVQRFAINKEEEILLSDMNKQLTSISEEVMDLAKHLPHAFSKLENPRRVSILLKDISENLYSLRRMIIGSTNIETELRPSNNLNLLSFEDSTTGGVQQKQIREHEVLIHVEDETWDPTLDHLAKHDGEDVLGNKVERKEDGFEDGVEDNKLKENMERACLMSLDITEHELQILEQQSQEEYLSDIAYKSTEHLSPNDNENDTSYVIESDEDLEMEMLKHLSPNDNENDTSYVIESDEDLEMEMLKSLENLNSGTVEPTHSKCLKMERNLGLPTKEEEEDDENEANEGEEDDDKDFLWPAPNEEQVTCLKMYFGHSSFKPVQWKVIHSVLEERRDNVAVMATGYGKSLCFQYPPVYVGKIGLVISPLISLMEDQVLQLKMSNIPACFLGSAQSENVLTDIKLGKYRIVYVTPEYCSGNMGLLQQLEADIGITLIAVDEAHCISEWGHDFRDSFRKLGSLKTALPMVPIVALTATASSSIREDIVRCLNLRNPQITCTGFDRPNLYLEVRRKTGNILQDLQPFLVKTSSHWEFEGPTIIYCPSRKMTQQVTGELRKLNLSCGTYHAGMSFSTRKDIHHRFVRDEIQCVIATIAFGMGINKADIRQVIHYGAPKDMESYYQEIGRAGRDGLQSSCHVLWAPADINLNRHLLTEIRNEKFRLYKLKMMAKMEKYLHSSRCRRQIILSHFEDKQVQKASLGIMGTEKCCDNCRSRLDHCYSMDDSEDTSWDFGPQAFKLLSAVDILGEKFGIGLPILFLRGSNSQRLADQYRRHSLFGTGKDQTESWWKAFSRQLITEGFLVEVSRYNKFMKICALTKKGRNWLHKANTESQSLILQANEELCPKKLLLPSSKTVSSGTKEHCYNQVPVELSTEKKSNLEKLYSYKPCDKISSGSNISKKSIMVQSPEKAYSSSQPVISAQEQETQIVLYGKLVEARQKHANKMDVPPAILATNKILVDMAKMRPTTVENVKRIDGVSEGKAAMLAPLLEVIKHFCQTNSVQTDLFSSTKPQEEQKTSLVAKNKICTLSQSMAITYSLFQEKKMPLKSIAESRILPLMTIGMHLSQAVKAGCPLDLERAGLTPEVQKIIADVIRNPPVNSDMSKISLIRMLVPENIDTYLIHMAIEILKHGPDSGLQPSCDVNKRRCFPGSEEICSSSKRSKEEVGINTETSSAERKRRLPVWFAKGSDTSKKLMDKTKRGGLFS

Target: Bifunctional 3'-5' exonuclease/ATP-dependent helicase WRN (Homo sapiens) (UniProt Q14191)
Assay: qHTS for Inhibitors of WRN Helicase; further: nearly all actives have a fitted effect of over 55% in size
Details: WRN helicase unwinding, fluorescent forked duplex, kinetic; activity change, negative = inhibition: at 114 µM (top of the series) unless noted
Outline: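 Kinetic fluorescence helicase assay: unwinding of a quenched forked DNA duplex (100 nM final) with 2 mM ATP final raises red fluorescence (525/598 nm). Compounds sat 15 min at room temperature with 20 nM WRN beforehand.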
On the % scale 0 is the no-effect control and ±100 the full control effect; potency means the concentration at half of the fitted maximal effect.

SMILES	Potency	activity change, negative = inhibition
COc1cccc(-c2cnc3c(NC=O)cc(-c4cc(OC)c(OC)c(OC)c4)cn23)c1	inconclusive: 100 µM [inhibitor, single point]	
Oc1ccc(/C=N/Nc2ccnc3cc(Cl)ccc23)cc1O	inconclusive: 35.5 µM [inhibitor, partial curve]	
C=CC1=C(C(=O)O)N2C(=O)[C@@H](NC(=O)/C(=N/OCC(=O)O)c3csc(N)n3)[C@H]2SC1	inconclusive: 3.77 µM [inhibitor, partial curve]	
O=C(NCCCN1CCOCC1)c1cc(-c2ccco2)nc2ccccc12	active: 50.1 µM	
Cc1ccc(Cn2c(SCC(=O)NCc3ccco3)nc3ccsc3c2=O)cc1		inactive: -3.09%
COC(=O)c1ccsc1NC(=O)CS(=O)(=O)c1ccccc1	inconclusive: 39.8 µM [inhibitor, partial curve]	
COc1cc(OC)c(C(=O)OCC(=O)NC23CC4CC(CC(C4)C2)C3)cc1OC	inconclusive: 22.4 µM [inhibitor, single point]	
CC1CN(C(=O)c2cc(COc3c(F)cccc3F)on2)CCN1C (stereo not given)	inconclusive: 89.1 µM [inhibitor, single point]	
O=[N+]([O-])c1cccc(CNC2CCCCCC2)c1		inactive: 9.94%
COc1ccc(S(=O)(=O)N(C)C)cc1NC(=O)COc1ccc2c(c1)CCC2		inactive: -5.49%
CC(C)C(NS(=O)(=O)c1cccc2nsnc12)C(=O)N1CCn2c1nc1ccccc12 (stereo not given)		inactive: -6.31%
COc1ccccc1C(=O)Nc1ccc(Oc2nnc(-c3ccc(C)cc3)c3ccccc23)cc1	inconclusive: 28.2 µM [inhibitor, single point]	
CCCc1nc2ccccc2c(C(=O)OCC(=O)Nc2c(C)n(C)n(-c3ccccc3)c2=O)c1CC		inactive: 0.98%
Nc1c(C(=O)Nc2nc3ccccc3s2)sc2nc(-c3cccs3)ccc12	inconclusive: 63.1 µM [inhibitor, partial curve]	
Cc1ccc(C(=O)Nc2cc(S(=O)(=O)N3CCOCC3)ccc2N2CCCC2)cc1		inactive: 0.0801%
[O-][N+](=Cc1ccccc1)c1ccc(Cl)cc1	inconclusive: 50.1 µM [inhibitor, partial curve]	
CC1CCCN(CC(=O)NNC(=O)COc2ccc(Br)cc2)C1 (stereo not given)	inconclusive: 25.1 µM [inhibitor, full curve]	
Cc1ccc(/C=N/Nc2ccc(Cl)c(C(=O)O)c2)s1	inconclusive: 31.6 µM [inhibitor, partial curve]	
COc1cc(N2C(=O)C=CC2=O)c(OC)cc1Cl		inactive: 0.545%
O=C(COC(=O)c1cccnc1Cl)NCc1ccco1	inconclusive: 79.4 µM [inhibitor, single point]	

Laid out differently: 2 of the compounds above
C=CC1=C(C(=O)O)N2C(=O)[C@@H](NC(=O)/C(=N/OCC(=O)O)c3csc(N)n3)[C@H]2SC1
  Potency: inconclusive: 3.77 µM [inhibitor, partial curve]
[O-][N+](=Cc1ccccc1)c1ccc(Cl)cc1
  Potency: inconclusive: 50.1 µM [inhibitor, partial curve]
